{"source": "paper PMC11314731", "about": "(Polymers, 2024)", "origin": "cited, not measured here", "settings": "cited from earlier work", "data": [{"smiles": "CC(=O)O[C@H]1C(=O)[C@@]2(C)[C@H]([C@H](OC(=O)c3ccccc3)[C@]3(O)C[C@H](OC(=O)[C@H](O)[C@@H](NC(=O)c4ccccc4)c4ccccc4)C(C)=C1C3(C)C)[C@]1(OC(C)=O)CO[C@@H]1C[C@@H]2O", "note": "[PTX, Paclitaxel]", "values": [{"measurement": "solubility in water", "value": "~ 0.3 μg/mL"}]}]}
